# Hit rate of the full screen: of about 52,000 sequences, about 210 (0.4%) were called active.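 The calls were made as follows: active = gene whose silencing raises cell survival under the drug, median off-target-corrected z-score across its silencing RNAs 2 or more; inactive = the rest.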 The list shows a part of the results.
# Assay: Resistance to Poly (ADP-Ribose) Polymerase inhibitor: Gene Identification via Genome-wide siRNA Screen
# Conditions: mouse BRCA2 R2336H ES cells, olaparib, CellTiter-Glo viability; hits give high values
# How it was run: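 Mouse BRCA2 R2336H ES cells were reverse-transfected with siRNA (20 nM final), treated at 48 h with 500 nM olaparib, and read by CellTiter-Glo after 72 h. Scores: MAD-based z per siRNA, median per gene, seed off-target correction.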
row,Sequence,z-score
1,GGACCAUGAGAAAUUUAAUTT against Nr2f1,inactive: 0.529
2,GGAUAUAGCUCAACACUUUTT against 4732482E20Rik,inactive: 0.404
3,GGAUGUAUGUUAAGAUUGATT against Olfr906,inactive: -0.339
4,GGGAUGAGUACAAGAAAAATT against AU022521,inactive: -0.515
5,GGGAAAAGAAAGUACCUACTT against Zcchc10,inactive: -1.05
6,CCCGAUUAGGUGUUGAUAUTT against 1700034J06Rik,inactive: -1.02
7,GGGAGUCCCAGCUUAGUAATT against Pou2f2,inactive: -0.799
8,GCAUAUACUUGAUUACCGUTT against Olfr830,inactive: 0.261
9,GGAGAACCAGAUCCUGAUCTT against P42pop,inactive: 0.717
10,GCGAAGAAGAACCAUCGAUTT against Tmem10,inactive: -0.625
11,GCACCAAGAAUUAUAUACATT against Usp8,inactive: 2.44
12,GCAGAUAGCCCACGUCAUUTT against Nfkb2,inactive: -0.309
13,CGGGCUAUCUGGAACUAUATT against Sesn1,inactive: 0.0688
14,CCAUCCAGAUUUAAUAACCTT against Dcbld1,inactive: 0.153
15,GCUGACACAAAACGCAGUCTT against Kcna4,inactive: -1.66
16,GGCUGUUUGCCAAAAAAAATT against Ppp1r16a,inactive: 0.752
17,GGCUGUCGUCAUUGAAGGATT against Ankrd27,inactive: -0.611
18,CCCUGAUGACAGAAGAAUCTT against Tyms,inactive: -0.811
19,CGGCUGUGUGCAUUUAAAGTT against Bmpr2,inactive: -0.00271
20,CGGCGGAUCUAUGAAGUAGTT against Mrpl1,inactive: -2.21
21,GGUGUCCCAGAGUGUAUAATT against Olfr1499,inactive: -2.67
22,GGAGGUCUACCAUUUCACCTT against Cops4,inactive: -0.436
23,CCAUUGGAUUGGAACUGGATT against AW494914,inactive: -0.555

row,Sequence,z-score
1,GGCCUACCAGAGAUUUAGATT against Ptgfr,inactive: -0.199
2,GCUAAGUAACUCUUUUAGGTT against Clock,inactive: -0.834
3,GGCACUUCACAGACUUAGUTT against Selp,inactive: 0.954
4,GGUUCUGGCUGGAAUCUACTT against Gna-rs1,inactive: 0.759
5,GGUUUUCUCACCAUUAUUGTT against Asb13,inactive: 1.77
6,CGAGUUUGAGUACCUGAAATT against Akt1,inactive: -1.54
7,GCUUAUUUCGCCUAUGUGGTT against Slc24a2,inactive: 0.471
8,CCCUGACCUAUUAAAAGAUTT against Cyp2b19,inactive: -1.46
9,GCGCAUGUACAACACUCUATT against Abcf3,inactive: -0.183
10,GGCCAUUUACUUGAAGAACTT against Lpin3,inactive: -0.633
11,GGCCGAAGAAGUCUUCGAUTT against 2310039E09Rik,inactive: 0.19
12,CCAAGUGAAGACACGAUUGTT against BB114266,inactive: -1.8
13,GGUGACCUCUCAGAGGUACTT against Kctd14,inactive: -0.608
14,GCGAUGAGACAGAUGUCGATT against Tcof1,inactive: -0.378
15,GCAACUUACUUGAUCUGAATT against Ap2b1,inactive: -0.829
16,GGCGAACAACUGGAACGCATT against Snap25,inactive: -0.163
17,GGGAUUUCGAGAGACUAGCTT against AA959601,inactive: 0.955
18,GGAAAACUGGACAGAAAAUTT against Ndufb4,inactive: 0.653
19,GCUUUUGCCAAGCAUAAUATT against Crot,inactive: 1.09
20,CCAUUCAGAUCCUCUUCACTT against Olfr48,inactive: -0.0453
21,GGAAGCGUAGUAAAAAGAGTT against MGC28180,inactive: -0.738
22,CCUAGCCAGCUAUGAUGUCTT against Mcoln1,inactive: 0.655
23,GCCAAGUUUGAACUUCGGATT against Elovl6,inactive: 0.772

row,Sequence,z-score
1,GGACAAGGAAUUAGGAGGATT against LOC626846,inactive: 1.15
2,GGAUCGUCUCCAAGUGGAUTT against 9130416B15,inactive: 0.617
3,GGAGACUUUGAAAAAAGACTT against Mrps31,inactive: -0.322
4,GCUGAUUUCCAAAGAUAAUTT against Glycam1,inactive: 0.301
5,GCAACGACUCUAAUGACUUTT against Slc38a1,inactive: -1.22
6,GGGACCCAGACAUUACAUGTT against Cldn6,inactive: -0.265
7,GGAUAAGAAACACAAGAAGTT against Srrm1,inactive: -0.147
8,GGCUGCUACCAAGAGUCAATT against 2700029E10Rik,inactive: 0.664
9,GAGCCAAAUCAGGAACAGCTT against Trim29,inactive: 1.5
10,GGCAUUCAGGAGGACUAGUTT against Lzp-s,inactive: -1.12
11,GGCACUUUUGAUUUCAGAUTT against Nrd1,inactive: 0.157
12,CGAAGUGGUCAAGUUCUCUTT against Fbxo17,inactive: -1.01
13,GCGGACCUUGUCCUAUAACTT against Slc9a2,inactive: -1.39
14,GGACAGAUUUUCACCAUUCTT against Slc1a4,inactive: 0.0724
15,CCUUCUAUUUAUAAGACCUTT against Lrch4,inactive: 0.217
16,GGACUCACUCCUUCCAUCATT against Pphln1,inactive: -2.02
17,GGUUAGUUCCUUAAAUUCCTT against BC016579,inactive: -0.122
18,CCAGAUCGGGAAAAAGGGUTT against Tsn,inactive: 0.983
19,GGAGCUGAAAAUCCAGCUGTT against Sdsl,inactive: 0.679
20,CGGCUUUGCACCAUACUUATT against Galnt12,inactive: -0.813
21,GGAGAAGGAGCUGGAAACGTT against Cttn,inactive: -1.86

# Quoted from the entries so far (five entries):
row,Sequence,z-score
17,GGUUAGUUCCUUAAAUUCCTT against BC016579,inactive: -0.122
18,CCAGAUCGGGAAAAAGGGUTT against Tsn,inactive: 0.983
19,GGAGCUGAAAAUCCAGCUGTT against Sdsl,inactive: 0.679
20,CGGCUUUGCACCAUACUUATT against Galnt12,inactive: -0.813
21,GGAGAAGGAGCUGGAAACGTT against Cttn,inactive: -1.86

# — PubChem BioAssay AID1347423 (Functional Genomics Laboratory (NCATS/FGL), 2020)
